No constants are given. Whether binding was seen depends on the method and setting. In cells and extracts the contact can be indirect. Here binding means that the protein was enriched with, or labelled near, the bait; the list need not be complete. One block for each molecule: values may come before it.
Columns and labels:
[1] = biological target: TurboID-TIMP2 fusion protein (human) (UniProt P16035); assay: proximity labelling; extracellular proximity labeling (ePL) with TurboID fusions: conditioned medium of fusion-expressing HT1080 put on wild-type HT1080 in 2D, 1uM biotin, 0.1mM ATP, 1 hour; streptavidin pulldown of lysate plus medium, LC-MS/MS; cells untreated or treated with 40nM PMA or 40ug/mL ConA
[2] = biological target: BioID2 fusion proteins (of TIMP2; orientation not told for the hit) (human) (UniProt P16035); assay: proximity labelling; ePL with BioID2 fusions on wild-type HT1080 spheroids (3D, ultra-low binding plates); fusion-expressing cells grown in 2D; single duplicate experiment, both orientations (n=4 samples); streptavidin pulldown, LC-MS/MS
[3] = biological target: recombinant TurboID fusion protein (of TIMP2; orientation not told for the serum experiment) (human) (UniProt P16035); assay: proximity labelling; 300nM recombinant TurboID fusion protein in human serum diluted to 50% with DPBS, 1uM biotin, 0.1mM ATP, 37°C, 1h; streptavidin pulldown, LC-MS/MS; duplicate; only the target purified
[4] = biological target: TIMP2-TurboID fusion protein (human) (UniProt P16035); assay: proximity labelling; extracellular proximity labeling (ePL) with TurboID fusions: conditioned medium of fusion-expressing HT1080 put on wild-type HT1080 in 2D, 1uM biotin, 0.1mM ATP, 1 hour; streptavidin pulldown of lysate plus medium, LC-MS/MS; cells untreated or treated with 40nM PMA or 40ug/mL ConA
[5] = biological target: TIMP2-BioID2 fusion protein (human) (UniProt P16035); assay: proximity labelling; ePL with BioID2 fusions on wild-type HT1080 spheroids (3D, ultra-low binding plates); fusion-expressing cells grown in 2D; single duplicate experiment, both orientations (n=4 samples); streptavidin pulldown, LC-MS/MS
[6] = biological target: BioID2-TIMP2 fusion protein (human) (UniProt P16035); assay: as above

Sequences of proteins named here, by UniProt entry; tags and fusion partners are left off. A change or cut given only in a name is not applied to a line headed by its entry. Residues count along the entry.
UniProt P16035, residues 27-220: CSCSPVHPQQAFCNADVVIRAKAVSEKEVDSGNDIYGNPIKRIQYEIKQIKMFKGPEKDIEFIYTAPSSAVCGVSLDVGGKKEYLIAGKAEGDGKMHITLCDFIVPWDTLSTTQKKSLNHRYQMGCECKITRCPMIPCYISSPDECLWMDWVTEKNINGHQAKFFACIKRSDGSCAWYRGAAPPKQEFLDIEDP
UniProt P01024, residues 23-1663: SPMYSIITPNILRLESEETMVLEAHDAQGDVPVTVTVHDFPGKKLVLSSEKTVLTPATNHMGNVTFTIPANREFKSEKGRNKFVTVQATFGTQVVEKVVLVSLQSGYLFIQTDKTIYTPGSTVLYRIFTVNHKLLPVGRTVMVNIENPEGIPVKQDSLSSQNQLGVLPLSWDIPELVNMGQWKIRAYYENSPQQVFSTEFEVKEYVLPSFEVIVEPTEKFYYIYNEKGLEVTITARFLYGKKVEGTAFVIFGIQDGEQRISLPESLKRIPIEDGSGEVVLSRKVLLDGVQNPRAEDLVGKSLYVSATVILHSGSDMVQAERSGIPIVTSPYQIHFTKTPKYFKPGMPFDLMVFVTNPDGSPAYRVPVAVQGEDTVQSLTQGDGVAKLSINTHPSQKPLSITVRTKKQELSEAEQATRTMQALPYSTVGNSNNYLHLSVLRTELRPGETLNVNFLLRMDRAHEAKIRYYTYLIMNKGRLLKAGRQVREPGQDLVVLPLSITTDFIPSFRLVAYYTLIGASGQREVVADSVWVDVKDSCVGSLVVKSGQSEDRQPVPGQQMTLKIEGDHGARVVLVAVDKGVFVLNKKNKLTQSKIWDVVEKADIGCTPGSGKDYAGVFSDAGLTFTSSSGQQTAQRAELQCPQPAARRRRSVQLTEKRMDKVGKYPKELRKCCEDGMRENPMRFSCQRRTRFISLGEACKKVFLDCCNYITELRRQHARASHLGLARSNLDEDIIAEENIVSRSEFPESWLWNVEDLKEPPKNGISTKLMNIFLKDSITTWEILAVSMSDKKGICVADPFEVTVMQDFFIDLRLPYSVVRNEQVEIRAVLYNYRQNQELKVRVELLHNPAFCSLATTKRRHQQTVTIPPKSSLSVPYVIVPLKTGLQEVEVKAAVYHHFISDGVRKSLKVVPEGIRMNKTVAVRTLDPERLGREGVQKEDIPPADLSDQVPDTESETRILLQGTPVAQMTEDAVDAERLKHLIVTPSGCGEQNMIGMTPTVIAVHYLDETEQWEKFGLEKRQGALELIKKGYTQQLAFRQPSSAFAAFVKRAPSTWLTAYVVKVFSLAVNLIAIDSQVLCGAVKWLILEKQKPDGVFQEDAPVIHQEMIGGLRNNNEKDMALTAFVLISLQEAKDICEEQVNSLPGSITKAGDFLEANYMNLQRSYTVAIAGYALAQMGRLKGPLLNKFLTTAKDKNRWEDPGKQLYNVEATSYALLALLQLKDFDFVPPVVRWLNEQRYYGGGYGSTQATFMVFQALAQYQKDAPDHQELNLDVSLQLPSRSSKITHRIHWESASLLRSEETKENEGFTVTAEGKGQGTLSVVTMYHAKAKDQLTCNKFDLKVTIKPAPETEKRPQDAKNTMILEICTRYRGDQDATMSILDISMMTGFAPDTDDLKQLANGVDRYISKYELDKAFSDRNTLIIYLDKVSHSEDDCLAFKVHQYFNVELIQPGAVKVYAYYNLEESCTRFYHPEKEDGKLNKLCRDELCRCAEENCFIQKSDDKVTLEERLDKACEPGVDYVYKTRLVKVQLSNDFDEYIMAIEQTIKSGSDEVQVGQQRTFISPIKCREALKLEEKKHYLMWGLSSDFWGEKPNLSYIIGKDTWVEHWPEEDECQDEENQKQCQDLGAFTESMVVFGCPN
UniProt Q9BZP6, residues 22-476: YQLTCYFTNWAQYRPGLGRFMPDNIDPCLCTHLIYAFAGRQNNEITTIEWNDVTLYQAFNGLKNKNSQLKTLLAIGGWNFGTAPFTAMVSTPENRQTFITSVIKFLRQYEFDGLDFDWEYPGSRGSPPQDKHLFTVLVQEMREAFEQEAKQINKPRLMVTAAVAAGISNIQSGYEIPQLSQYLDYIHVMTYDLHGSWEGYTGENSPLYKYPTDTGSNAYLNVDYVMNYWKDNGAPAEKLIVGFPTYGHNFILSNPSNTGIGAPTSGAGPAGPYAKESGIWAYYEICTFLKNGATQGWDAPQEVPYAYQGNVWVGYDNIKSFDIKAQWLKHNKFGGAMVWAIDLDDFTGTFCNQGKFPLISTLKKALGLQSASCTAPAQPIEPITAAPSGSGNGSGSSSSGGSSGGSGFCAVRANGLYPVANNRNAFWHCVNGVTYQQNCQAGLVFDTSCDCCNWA
UniProt P08311: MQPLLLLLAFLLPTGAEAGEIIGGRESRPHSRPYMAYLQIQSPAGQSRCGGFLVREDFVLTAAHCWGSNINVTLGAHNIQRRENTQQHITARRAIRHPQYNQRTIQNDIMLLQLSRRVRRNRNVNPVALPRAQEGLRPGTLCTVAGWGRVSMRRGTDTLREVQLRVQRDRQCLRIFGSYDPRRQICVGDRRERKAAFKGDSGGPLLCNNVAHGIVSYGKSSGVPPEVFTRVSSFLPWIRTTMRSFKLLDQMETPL
UniProt P12260: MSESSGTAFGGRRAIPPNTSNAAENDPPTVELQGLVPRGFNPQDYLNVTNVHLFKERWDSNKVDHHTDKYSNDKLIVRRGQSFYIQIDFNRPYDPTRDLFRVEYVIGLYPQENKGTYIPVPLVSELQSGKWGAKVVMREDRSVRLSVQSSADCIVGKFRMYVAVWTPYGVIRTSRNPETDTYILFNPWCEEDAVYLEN
UniProt P20959, residues 28-291: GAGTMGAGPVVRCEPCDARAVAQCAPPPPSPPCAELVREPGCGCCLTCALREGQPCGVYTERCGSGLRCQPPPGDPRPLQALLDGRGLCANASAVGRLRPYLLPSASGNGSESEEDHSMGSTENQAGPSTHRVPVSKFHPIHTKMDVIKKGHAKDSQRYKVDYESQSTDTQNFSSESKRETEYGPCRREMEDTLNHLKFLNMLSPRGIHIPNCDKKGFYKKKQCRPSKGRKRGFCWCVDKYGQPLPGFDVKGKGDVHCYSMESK
UniProt Q9NS15, residues 44-1303: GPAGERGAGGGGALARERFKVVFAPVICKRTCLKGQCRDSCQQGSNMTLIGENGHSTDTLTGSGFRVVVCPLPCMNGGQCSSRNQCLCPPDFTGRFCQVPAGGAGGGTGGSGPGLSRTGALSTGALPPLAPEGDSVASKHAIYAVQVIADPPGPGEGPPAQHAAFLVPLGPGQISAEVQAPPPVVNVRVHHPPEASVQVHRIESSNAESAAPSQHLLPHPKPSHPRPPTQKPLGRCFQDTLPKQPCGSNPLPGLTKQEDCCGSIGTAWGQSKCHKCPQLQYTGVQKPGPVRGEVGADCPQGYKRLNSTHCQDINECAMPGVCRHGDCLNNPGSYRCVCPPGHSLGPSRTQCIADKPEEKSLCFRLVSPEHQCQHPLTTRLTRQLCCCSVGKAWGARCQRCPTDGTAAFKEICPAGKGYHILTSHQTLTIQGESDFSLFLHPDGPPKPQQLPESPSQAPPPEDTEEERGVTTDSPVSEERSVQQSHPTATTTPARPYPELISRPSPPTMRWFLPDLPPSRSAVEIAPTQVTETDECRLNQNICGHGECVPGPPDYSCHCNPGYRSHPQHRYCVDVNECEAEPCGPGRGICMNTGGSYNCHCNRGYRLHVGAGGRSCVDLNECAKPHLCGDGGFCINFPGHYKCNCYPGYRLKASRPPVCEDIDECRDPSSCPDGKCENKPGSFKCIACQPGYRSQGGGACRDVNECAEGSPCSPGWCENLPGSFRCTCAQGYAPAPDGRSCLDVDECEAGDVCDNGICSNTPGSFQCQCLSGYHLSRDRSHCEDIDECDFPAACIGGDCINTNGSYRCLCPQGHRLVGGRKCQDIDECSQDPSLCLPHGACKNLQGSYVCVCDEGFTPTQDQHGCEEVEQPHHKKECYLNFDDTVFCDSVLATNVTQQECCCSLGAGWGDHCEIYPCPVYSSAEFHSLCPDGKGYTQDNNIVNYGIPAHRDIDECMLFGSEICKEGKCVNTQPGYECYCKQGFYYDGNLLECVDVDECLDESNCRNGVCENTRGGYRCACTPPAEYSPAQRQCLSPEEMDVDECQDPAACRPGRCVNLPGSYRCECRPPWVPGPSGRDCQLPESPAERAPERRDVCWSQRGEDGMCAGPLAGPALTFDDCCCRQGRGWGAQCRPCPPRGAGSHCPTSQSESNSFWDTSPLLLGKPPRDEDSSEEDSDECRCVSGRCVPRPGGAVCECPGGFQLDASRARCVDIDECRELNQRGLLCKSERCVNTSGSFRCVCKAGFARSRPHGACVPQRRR
UniProt P03956: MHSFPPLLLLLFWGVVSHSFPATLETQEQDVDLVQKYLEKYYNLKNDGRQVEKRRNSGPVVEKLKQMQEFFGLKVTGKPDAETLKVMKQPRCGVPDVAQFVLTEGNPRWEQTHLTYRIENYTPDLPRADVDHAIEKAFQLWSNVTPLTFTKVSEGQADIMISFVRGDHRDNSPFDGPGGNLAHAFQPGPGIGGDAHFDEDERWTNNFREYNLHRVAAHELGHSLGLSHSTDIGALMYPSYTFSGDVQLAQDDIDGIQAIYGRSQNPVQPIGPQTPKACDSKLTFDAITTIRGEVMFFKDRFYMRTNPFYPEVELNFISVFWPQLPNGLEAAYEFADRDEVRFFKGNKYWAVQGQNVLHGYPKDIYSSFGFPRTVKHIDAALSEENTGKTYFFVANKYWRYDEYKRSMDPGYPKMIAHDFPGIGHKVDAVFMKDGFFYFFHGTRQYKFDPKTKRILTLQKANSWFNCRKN
UniProt P02787, residues 20-698: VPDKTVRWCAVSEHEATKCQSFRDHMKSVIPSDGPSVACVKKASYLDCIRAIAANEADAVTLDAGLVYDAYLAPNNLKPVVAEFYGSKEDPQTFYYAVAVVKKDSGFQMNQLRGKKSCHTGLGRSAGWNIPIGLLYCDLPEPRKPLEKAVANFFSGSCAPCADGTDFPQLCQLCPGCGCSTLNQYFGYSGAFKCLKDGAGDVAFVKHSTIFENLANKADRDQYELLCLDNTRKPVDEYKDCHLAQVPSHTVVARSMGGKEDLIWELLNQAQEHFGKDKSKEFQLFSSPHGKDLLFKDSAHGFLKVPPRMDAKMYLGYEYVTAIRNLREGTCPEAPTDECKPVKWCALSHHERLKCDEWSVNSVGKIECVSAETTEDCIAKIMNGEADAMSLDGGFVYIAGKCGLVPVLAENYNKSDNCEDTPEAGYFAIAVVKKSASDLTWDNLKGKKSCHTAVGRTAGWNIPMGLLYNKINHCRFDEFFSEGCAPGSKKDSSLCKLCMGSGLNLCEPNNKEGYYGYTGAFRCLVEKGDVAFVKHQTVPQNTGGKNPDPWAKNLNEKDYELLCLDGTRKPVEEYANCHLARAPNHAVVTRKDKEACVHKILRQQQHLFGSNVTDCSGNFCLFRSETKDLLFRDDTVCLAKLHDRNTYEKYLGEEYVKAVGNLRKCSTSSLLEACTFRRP

- binding [1]: binds
Molecule: C3 (bovine) (from UniProt Q2UVX4 23-1661)

- binding [2]: binds
Molecule: C3 (found in HT1080 spheroid cultures) (from UniProt P01024 23-1663)

- binding [2]: binds
Molecule: CHIA (from UniProt Q9BZP6 22-476)

- binding [3]: binds
Molecule: Cathepsin G (CTSG) (from UniProt P08311) (enzyme)

- binding [4]: binds
- binding [1]: binds
Molecule: F13A1 (Coagulation Factor XIII A Chain), found in HT1080 cultures (from UniProt P12260)

- binding [1]: binds
Molecule: IGFBP3 (bovine) (from UniProt P20959 28-291)

- binding [5]: binds
- binding [6]: binds
Molecule: LTBP1 (from UniProt Q14766 24-1721)

- binding [5]: binds
- binding [6]: binds
Molecule: LTBP3 (from UniProt Q9NS15 44-1303)

- binding [4]: binds
Molecule: Matrix metalloproteinase 1 (MMP1) (from UniProt P03956) (enzyme)

- binding [2]: binds
Molecule: TF (from UniProt P02787 20-698)

- binding [1]: binds
B1: SERPINA5 (bovine) (protein, UniProt Q9N2I2 25-404)
chain: KKIQEVPPAVTTAPPGSRDFVFDLYRALAAAAPAQNIFFSPLSITVSLAMLSLGAQSNTKAQILEGLGIGPGEGSEEELHSASQRLLRELQQPQDSLQLSLGNALFTKPRLPIQEAFLGAMRTLYLADTFPTNFEDPEGAKKKINDYVAKQTKGKIVDLIKSLDGTQVMVMVNYIFFKAKWETSFNLKSTHEQDFYVTPETVVRVPMMKQQDQFYYLLDRNLSCKVVGVPYQGNATAFFILPREGEMEQVENGLKEKTLKKWLRMPMKRRLELYLPKFSIEGSYQLEEVLPKLGIRDIFTSDADLTGISNHSSIRVSEMVHKAVVEVDESGTQAAAATGMVITFKSARLGSQRIVFNRPFLVLIVKNSKHILFLGKVTRP

- binding [1]: binds
B2: CFH (bovine) (protein, UniProt Q28085 19-1236)
chain: EDCKEPPPRKETEILSGSWTEQTYQEGTQATYKCRPGYRTLGSIVMMCRGGKWVSLHPSRICRKKPCAHPGDTPFGSFHLAEGTQFEYGAKVVYTCDEGYQMVGEMNFRECDTNGWTNDIPICEVVKCLPVTEPENGKIFSDALEPDQEYTYGQVVQFECNSGYMLDGPKQIHCSAGGVWSAETPKCVEIFCKTPVILNGQAVLPKATYKANERVQYRCAAGFEYGQRGDTICTKSGWTPAPTCIEITCDPPRIPNGVYRPELSKYRGQDKITYECKKGFFPEIRGTDATCTRDGWVPVPRCAWKPCSYPVIKHGRLYYSYRGYFPARVNQQFVYSCDHHFVPPSQRSWDHLTCTAEGWSPEEPCLRQCIFNYLENGHTPYREEKYLQGETVRVRCYEGYSLQNDQNTMTCTESGWSPPPRCIRVKTCSKSNIRIENGFLSESTFTYPLNKQTEYKCKPGYVTADGKTSGLITCLKNGWSAQPVCIKSCDRPVFEKARVKSDGTWFRLNDRLDYECVDGYENRDGRTTGSIVCGQDGWSDKAACYERECSIPEMDPYLNAYPRKETYKVGDVLKFSCSQGRIMVGADSVQCYHFGWSPKLPTCKVKKVKSCALPPELPNGKRKEIHKEEYAHNEVVEYACNPRFLMKGSHKIQCVDGEWTALPVCIEEERTCGNIPDLDHGDVKPSVPPYHHGDSVEFSCREAFTMIGPRFITCISGEWTQPPQCIATDELRKCKGSTLFPPEGRQAHKIEYDHNTNKSYQCRGKSEHKHSICINGEWDPKVDCNEEAKIQLCPPPPQVPNACDMTTTVNYQDGEKISILCKENYLIQDAEEIVCKDGRWQSIPRCIEKIGCSQPPQIDHGTISSSSSAEERREIHEQRLYAHGTKLSYTCEEGFEISENNVIICHMGKWSSPPQCVGLPCGLPPYVQNGVVSHKKDRYQYGEEVTYDCDEGFGTDGPASIRCLGGEWSRPQDCISTNCVNLPTFEDAVLTDREKDFYRSGEQVAFKCLSYYQLDGSNTIQCIKSKWIGRPACRDVSCGNPPQVENAIIHNQKSKYQSEERARYECIGNYDLFGEMEVVCLNGTWTEPPQCKDSQGKCGPPPPIDNGDITSLLQSVYPPGMIVEYRCQAYYELRGNKNVVCRNGEWSQLPKCLEACVISEETMRKHHIQLRWKHDKKIYSKTEDTIEFMCQHGYRQLTPKHTFRATCREGKVVYPRCG

- binding [2]: binds
B3: SETDB2 (protein, UniProt Q96T68 1-719)
chain: MGEKNGDAKTFWMELEDDGKVDFIFEQVQNVLQSLKQKIKDGSATNKEYIQAMILVNEATIINSSTSIKGASQKEVNAQSSDPMPVTQKEQENKSNAFPSTSCENSFPEDCTFLTTENKEILSLEDKVVDFREKDSSSNLSYQSHDCSGACLMKMPLNLKGENPLQLPIKCHFQRRHAKTNSHSSALHVSYKTPCGRSLRNVEEVFRYLLETECNFLFTDNFSFNTYVQLARNYPKQKEVVSDVDISNGVESVPISFCNEIDSRKLPQFKYRKTVWPRAYNLTNFSSMFTDSCDCSEGCIDITKCACLQLTARNAKTSPLSSDKITTGYKYKRLQRQIPTGIYECSLLCKCNRQLCQNRVVQHGPQVRLQVFKTEQKGWGVRCLDDIDRGTFVCIYSGRLLSRANTEKSYGIDENGRDENTMKNIFSKKRKLEVACSDCEVEVLPLGLETHPRTAKTEKCPPKFSNNPKELTVETKYDNISRIQYHSVIRDPESKTAIFQHNGKKMEFVSSESVTPEDNDGFKPPREHLNSKTKGAQKDSSSNHVDEFEDNLLIESDVIDITKYREETPPRSRCNQATTLDNQNIKKAIEVQIQKPQEGRSTACQRQQVFCDEELLSETKNTSSDSLTKFNKGNVFLLDATKEGNVGRFLNHSCCPNLLVQNVFVETHNRNFPLVAFFTNRYVKARTELTWDYGYEAGTVPEKEIFCQCGVNKCRKKIL

- binding [2]: binds
B4: EFEMP1 (protein, UniProt Q12805 18-493)
chain: QDTEETITYTQCTDGYEWDPVRQQCKDIDECDIVPDACKGGMKCVNHYGGYLCLPKTAQIIVNNEQPQQETQPAEGTSGATTGVVAASSMATSGVLPGGGFVASAAAVAGPEMQTGRNNFVIRRNPADPQRIPSNPSHRIQCAAGYEQSEHNVCQDIDECTAGTHNCRADQVCINLRGSFACQCPPGYQKRGEQCVDIDECTIPPYCHQRCVNTPGSFYCQCSPGFQLAANNYTCVDINECDASNQCAQQCYNILGSFICQCNQGYELSSDRLNCEDIDECRTSSYLCQYQCVNEPGKFSCMCPQGYQVVRSRTCQDINECETTNECREDEMCWNYHGGFRCYPRNPCQDPYILTPENRCVCPVSNAMCRELPQSIVYKYMSIRSDRSVPSDIFQIQATTIYANTINTFRIKSGNENGEFYLRQTSPVSAMLVLVKSLSGPREHIVDLEMLTVSSIGTFRTSSVLRLTIIVGPFSF

- binding [3]: binds
B5: Secreted Frizzled Related Protein 1 (SFRP1) (protein, UniProt Q8N474 32-314)
chain: SEYDYVSFQSDIGPYQSGRFYTKPPQCVDIPADLRLCHNVGYKKMVLPNLLEHETMAEVKQQASSWVPLLNKNCHAGTQVFLCSLFAPVCLDRPIYPCRWLCEAVRDSCEPVMQFFGFYWPEMLKCDKFPEGDVCIAMTPPNATEASKPQGTTVCPPCDNELKSEAIIEHLCASEFALRMKIKEVKKENGDKKIVPKKKKPLKLGPIKKKDLKKLVLYLKNGADCPCHQLDNLSHHFLIMGRKVKSQYLLTAIHKWDKKNKEFKNFMKKMKNHECPTFQSVFK

- binding [3]: binds
B6: Pregnancy-Zone Protein (PZP) (protein, UniProt P20742 26-1482)
chain: TEPQYMVLVPSLLHTEAPKKGCVLLSHLNETVTVSASLESGRENRSLFTDLVAEKDLFHCVSFTLPRISASSEVAFLSIQIKGPTQDFRKRNTVLVLNTQSLVFVQTDKPMYKPGQTVRFRVVSVDENFRPRNELIPLIYLENPRRNRIAQWQSLKLEAGINQLSFPLSSEPIQGSYRVVVQTESGGRIQHPFTVEEFVLPKFEVKVQVPKIISIMDEKVNITVCGEYTYGKPVPGLATVSLCRKLSRVLNCDKQEVCEEFSQQLNSNGCITQQVHTKMLQITNTGFEMKLRVEARIREEGTDLEVTANRISEITNIVSKLKFVKVDSHFRQGIPFFAQVLLVDGKGVPIPNKLFFISVNDANYYSNATTNEQGLAQFSINTTSISVNKLFVRVFTVHPNLCFHYSWVAEDHQGAQHTANRVFSLSGSYIHLEPVAGTLPCGHTETITAHYTLNRQAMGELSELSFHYLIMAKGVIVRSGTHTLPVESGDMKGSFALSFPVESDVAPIARMFIFAILPDGEVVGDSEKFEIENCLANKVDLSFSPAQSPPASHAHLQVAAAPQSLCALRAVDQSVLLMKPEAELSVSSVYNLLTVKDLTNFPDNVDQQEEEQGHCPRPFFIHNGAIYVPLSSNEADIYSFLKGMGLKVFTNSKIRKPKSCSVIPSVSAGAVGQGYYGAGLGVVERPYVPQLGTYNVIPLNNEQSSGPVPETVRSYFPETWIWELVAVNSSGVAEVGVTVPDTITEWKAGAFCLSEDAGLGISSTASLRAFQPFFVELTMPYSVIRGEVFTLKATVLNYLPKCIRVSVQLKASPAFLASQNTKGEESYCICGNERQTLSWTVTPKTLGNVNFSVSAEAMQSLELCGNEVVEVPEIKRKDTVIKTLLVEAEGIEQEKTFSSMTCASGANVSEQLSLKLPSNVVKESARASFSVLGDILGSAMQNIQNLLQMPYGCGEQNMVLFAPNIYVLNYLNETQQLTQEIKAKAVGYLITGYQRQLNYKHQDGSYSTFGERYGRNQGNTWLTAFVLKTFAQARSYIFIDEAHITQSLTWLSQMQKDNGCFRSSGSLLNNAIKGGVEDEATLSAYVTIALLEIPLPVTNPIVRNALFCLESAWNVAKEGTHGSHVYTKALLAYAFSLLGKQNQNREILNSLDKEAVKEDNLVHWERPQRPKAPVGHLYQTQAPSAEVEMTSYVLLAYLTAQPAPTSGDLTSATNIVKWIMKQQNAQGGFSSTQDTVVALHALSRYGAATFTRTEKTAQVTVQDSQTFSTNFQVDNNNLLLLQQISLPELPGEYVITVTGERCVYLQTSMKYNILPEKEDSPFALKVQTVPQTCDGHKAHTSFQISLTISYTGNRPASNMVIVDVKMVSGFIPLKPTVKMLERSSSVSRTEVSNNHVLIYVEQVTNQTLSFSFMVLQDIPVGDLKPAIVKVYDYYETDESVVAEYIAPCSTDTEHGNV

Source: paper PMC10836090
